No constants are given. Whether binding was seen depends on the method and setting. In cells and extracts the contact can be indirect. A yes stands for co-enrichment or nearness to the bait. Other partners may have been found.
How the values were obtained:
Assay in all cases: proximity labelling; TurboID fusions transiently expressed in MDA-MB-231 cells; 50 μmol/L biotin for 10 min; RIPA lysate on streptavidin magnetic beads; mass spectrometry; hits of the empty Turbo group subtracted
[1] = target: TPM4-TurboID (UniProt P67936)
[2] = target: α-actinin1-TurboID (UniProt P12814)
[3] = target: PDLIM1-TurboID (UniProt O00151)
[4] = target: T1, ArgBP2-TurboID (UniProt O94875)
T1 sequence: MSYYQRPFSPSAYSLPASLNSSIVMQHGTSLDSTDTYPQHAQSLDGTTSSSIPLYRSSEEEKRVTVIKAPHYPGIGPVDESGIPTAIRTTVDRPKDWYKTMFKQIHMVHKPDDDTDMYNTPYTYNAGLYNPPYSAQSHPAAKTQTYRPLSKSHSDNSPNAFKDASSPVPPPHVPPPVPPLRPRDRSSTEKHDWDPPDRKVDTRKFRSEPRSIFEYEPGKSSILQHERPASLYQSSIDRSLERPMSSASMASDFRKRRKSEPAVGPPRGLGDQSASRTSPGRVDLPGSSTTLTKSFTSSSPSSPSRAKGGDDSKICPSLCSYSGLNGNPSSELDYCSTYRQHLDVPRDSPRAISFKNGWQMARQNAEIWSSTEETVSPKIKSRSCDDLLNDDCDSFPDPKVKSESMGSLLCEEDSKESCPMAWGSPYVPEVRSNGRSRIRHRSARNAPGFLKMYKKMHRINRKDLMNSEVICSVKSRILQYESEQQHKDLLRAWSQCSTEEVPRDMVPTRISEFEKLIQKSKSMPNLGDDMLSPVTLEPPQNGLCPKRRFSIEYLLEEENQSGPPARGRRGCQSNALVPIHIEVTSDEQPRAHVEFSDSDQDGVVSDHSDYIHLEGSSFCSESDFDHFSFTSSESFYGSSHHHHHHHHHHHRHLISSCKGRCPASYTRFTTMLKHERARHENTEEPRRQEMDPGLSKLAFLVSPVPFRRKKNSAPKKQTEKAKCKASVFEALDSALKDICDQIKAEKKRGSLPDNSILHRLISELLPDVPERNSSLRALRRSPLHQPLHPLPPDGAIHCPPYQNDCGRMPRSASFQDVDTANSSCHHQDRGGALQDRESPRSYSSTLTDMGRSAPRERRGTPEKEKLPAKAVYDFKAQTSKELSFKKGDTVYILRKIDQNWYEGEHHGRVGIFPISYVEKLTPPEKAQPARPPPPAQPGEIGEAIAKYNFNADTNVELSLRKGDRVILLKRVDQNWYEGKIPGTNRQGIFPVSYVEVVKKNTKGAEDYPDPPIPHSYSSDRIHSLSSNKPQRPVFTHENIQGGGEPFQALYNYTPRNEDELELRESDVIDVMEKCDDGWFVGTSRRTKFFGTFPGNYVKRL

Amino acid sequences for entries named in this document (tags omitted).
UniProt P67936: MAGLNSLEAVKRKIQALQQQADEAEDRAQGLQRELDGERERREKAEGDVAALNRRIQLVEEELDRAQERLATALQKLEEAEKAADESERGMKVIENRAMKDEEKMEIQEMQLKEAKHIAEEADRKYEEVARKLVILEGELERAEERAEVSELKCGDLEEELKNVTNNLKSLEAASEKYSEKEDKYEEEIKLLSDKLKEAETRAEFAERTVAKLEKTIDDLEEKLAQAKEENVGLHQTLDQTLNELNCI
UniProt P12814: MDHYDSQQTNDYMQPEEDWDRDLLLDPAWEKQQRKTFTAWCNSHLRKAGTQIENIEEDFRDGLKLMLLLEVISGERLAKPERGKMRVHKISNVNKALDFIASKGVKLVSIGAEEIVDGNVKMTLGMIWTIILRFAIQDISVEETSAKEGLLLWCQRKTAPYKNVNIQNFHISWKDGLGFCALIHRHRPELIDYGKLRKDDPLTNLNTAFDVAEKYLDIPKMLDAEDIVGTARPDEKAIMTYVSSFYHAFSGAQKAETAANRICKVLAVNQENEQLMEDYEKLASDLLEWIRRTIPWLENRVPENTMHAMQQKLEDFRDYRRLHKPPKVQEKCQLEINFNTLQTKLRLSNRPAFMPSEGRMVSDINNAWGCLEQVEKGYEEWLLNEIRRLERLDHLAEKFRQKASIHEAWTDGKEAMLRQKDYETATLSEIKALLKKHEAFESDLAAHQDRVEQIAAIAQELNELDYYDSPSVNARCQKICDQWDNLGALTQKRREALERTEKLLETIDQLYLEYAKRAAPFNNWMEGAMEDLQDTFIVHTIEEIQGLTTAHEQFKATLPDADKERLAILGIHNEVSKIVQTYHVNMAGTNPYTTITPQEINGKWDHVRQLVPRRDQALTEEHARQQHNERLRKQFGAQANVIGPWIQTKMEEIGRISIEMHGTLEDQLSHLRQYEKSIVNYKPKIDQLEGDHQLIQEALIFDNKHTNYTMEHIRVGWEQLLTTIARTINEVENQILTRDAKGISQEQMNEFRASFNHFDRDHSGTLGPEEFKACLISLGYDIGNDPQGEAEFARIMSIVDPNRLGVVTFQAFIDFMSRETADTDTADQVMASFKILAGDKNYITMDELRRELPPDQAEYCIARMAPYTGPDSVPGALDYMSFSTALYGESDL
UniProt O00151: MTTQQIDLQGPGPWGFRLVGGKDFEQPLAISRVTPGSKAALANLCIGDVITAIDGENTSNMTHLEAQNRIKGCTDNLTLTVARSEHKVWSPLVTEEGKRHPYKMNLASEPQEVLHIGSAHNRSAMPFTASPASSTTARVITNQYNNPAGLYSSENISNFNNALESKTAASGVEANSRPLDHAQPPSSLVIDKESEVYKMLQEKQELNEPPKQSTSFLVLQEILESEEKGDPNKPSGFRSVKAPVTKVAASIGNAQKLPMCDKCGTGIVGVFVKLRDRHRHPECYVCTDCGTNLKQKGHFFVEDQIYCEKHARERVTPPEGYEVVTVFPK

Measured: binding

B1: PFKM (phosphofructokinase muscle type), endogenous (enzyme, UniProt P08237 1-780)
chain: MTHEEHHAAKTLGIGKAIAVLTSGGDAQGMNAAVRAVVRVGIFTGARVFFVHEGYQGLVDGGDHIKEATWESVSMMLQLGGTVIGSARCKDFREREGRLRAAYNLVKRGITNLCVIGGDGSLTGADTFRSEWSDLLSDLQKAGKITDEEATKSSYLNIVGLVGSIDNDFCGTDMTIGTDSALHRIMEIVDAITTTAQSHQRTFVLEVMGRHCGYLALVTSLSCGADWVFIPECPPDDDWEEHLCRRLSETRTRGSRLNIIIVAEGAIDKNGKPITSEDIKNLVVKRLGYDTRVTVLGHVQRGGTPSAFDRILGSRMGVEAVMALLEGTPDTPACVVSLSGNQAVRLPLMECVQVTKDVTKAMDEKKFDEALKLRGRSFMNNWEVYKLLAHVRPPVSKSGSHTVAVMNVGAPAAGMNAAVRSTVRIGLIQGNRVLVVHDGFEGLAKGQIEEAGWSYVGGWTGQGGSKLGTKRTLPKKSFEQISANITKFNIQGLVIIGGFEAYTGGLELMEGRKQFDELCIPFVVIPATVSNNVPGSDFSVGADTALNTICTTCDRIKQSAAGTKRRVFIIETMGGYCGYLATMAGLAAGADAAYIFEEPFTIRDLQANVEHLVQKMKTTVKRGLVLRNEKCNENYTTDFIFNLYSEEGKGIFDSRKNVLGHMQQGGSPTPFDRNFATKMGAKAMNWMSGKIKESYRNGRIFANTPDSGCVLGMRKRALVFQPVAELKDQTDFEHRIPKEQWWLKLRPILKILAKYEIDLDTSDHAHLEHITRKRSGEAAV
binds: all assays above
